The assay deals with HEK293A TEAD-LUC reporter. As to the kind of experiment: TEAD-luciferase reporter activity (YAP activation), robust Z score vs plate; higher = stronger YAP/TEAD activation. The note with it: 24 h.

Structures can show the parent of a compound that is named as a salt. The list shows a part of the results. This data set is noisy: repeats of one test often differ as much as different tests do.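 Human kidney-derived cells stably carry a construct in which eight TEAD-binding elements drive luciferase, measured by luminescence in a drug-repurposing library screen. A hit is any compound whose signal exceeds the plate mean by more than five robust Z scores.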

In the case of `COc1ccc2c3c([nH]c2c1)[C@H](C=C(C)C)N1C(=O)[C@@H]2CCCN2C(=O)[C@@H]1C3` [Fumitremorgin C], the TEAD-luciferase reporter activity is, setting by setting: (compound concentration: 200 nM) inactive: -1.03; (compound concentration: 2 uM) inactive: -0.521; (compound concentration: 10 uM) inactive: 1.97.
Take `CC12CC[C@@H]3C4CCC(=O)C=C4CCC3[C@@H]1CC[C@@H]2OC(=O)C12C[C@H]3C[C@@H](C1)C[C@@H](C2)C3` (some centres undefined): the TEAD-luciferase reporter activity was inactive: 3.87 (compound concentration: 200 nM), inactive: -0.0921 (compound concentration: 2 uM) and inactive: -0.345 (compound concentration: 10 uM).
Take `CNCC/C=C/c1cccnc1`: the TEAD-luciferase reporter activity (compound concentration: 200 nM) was inactive: 2.38 and the TEAD-luciferase reporter activity (compound concentration: 10 uM) is inactive: -0.558.
As for `CNCC/C=C/c1cccnc1` [Rivanicline], the TEAD-luciferase reporter activity (compound concentration: 2 uM) is inactive: -1.12.
With `CN1[C@@H]2CC[C@H]1C[C@@H](OC(=O)C(c1ccccc1)c1ccccc1)C2`, the TEAD-luciferase reporter activity is inactive: -0.535 (compound concentration: 200 nM), inactive: 0.0795 (compound concentration: 2 uM) and inactive: 0.93 (compound concentration: 10 uM).
On to `CN(C)Cc1nnc2n1-c1ccc(Cl)cc1C(c1ccccc1)=NC2` [adinazolam mesylate], for which the TEAD-luciferase reporter activity runs as follows: (compound concentration: 200 nM) inactive: -0.643; (compound concentration: 2 uM) inactive: -0.991; (compound concentration: 10 uM) inactive: -1.47.
The like results for `C1=CCC(c2cccnc2)NC1` (centres undefined) were, in that order, inactive: 1.91, inactive: -0.833 and inactive: -0.754.
On to `c1cnc2c([O][Ga]([O]c3cccc4cccnc34)[O]c3cccc4cccnc34)cccc2c1`, for which the TEAD-luciferase reporter activity (compound concentration: 200 nM) is inactive: 0.0896, the TEAD-luciferase reporter activity (compound concentration: 2 uM) was inactive: -1.61 and the TEAD-luciferase reporter activity (compound concentration: 10 uM) is inactive: -2.21.
In the case of `C[C@@H]1CC[C@H]2[C@@H](C)C(=O)O[C@@H]3O[C@@]4(C)CC[C@@H]1[C@]32OO4` [artemisinin], under “compound concentration: 2 uM”, the TEAD-luciferase reporter activity is inactive: -0.00617.
On to `C[C@@H]1CC[C@H]2[C@@H](C)C(=O)O[C@@H]3O[C@@]4(C)CC[C@@H]1[C@]32OO4` [Artemisinin], for which the TEAD-luciferase reporter activity reads like this: (compound concentration: 200 nM) inactive: -0.677; (compound concentration: 10 uM) inactive: 1.57.
For the compound `Cc1cc(O)ccc1Cl`, the TEAD-luciferase reporter activity (compound concentration: 2 uM) is inactive: -0.169.
Consider `Cc1cc(O)ccc1Cl` [4-Chloro-3-methylphenol], for which the TEAD-luciferase reporter activity is inactive: 0.216 (compound concentration: 200 nM) and inactive: -1.19 (compound concentration: 10 uM).
Consider `CCOCCN1CCC(OC(=O)CC)(c2ccccc2)CC1` [Prosidol], for which the TEAD-luciferase reporter activity was inactive: 1.12 (compound concentration: 200 nM), inactive: 0.77 (compound concentration: 2 uM) and inactive: -0.0955 (compound concentration: 10 uM).
For the compound `COc1ccc2c(c1)CC(CN1CCC3(CC1)C(=O)NCN3c1ccccc1)O2` (centres undefined), the TEAD-luciferase reporter activity was inactive: -0.346 (compound concentration: 200 nM), inactive: -0.703 (compound concentration: 2 uM) and inactive: 0.604 (compound concentration: 10 uM).
As for `Cc1ncccc1OCC1CCCN1` (centres undefined) [Pozanicline hydrochloride], the TEAD-luciferase reporter activity is inactive: -0.179 (compound concentration: 200 nM), inactive: -0.18 (compound concentration: 2 uM) and inactive: 0.305 (compound concentration: 10 uM).
For the compound `C=CCN1CC[C@]23c4c5ccc(O)c4O[C@H]2[C@@H](OCCOCCOCCOCCOCCOCCOCCOC)CC[C@@]3(O)[C@H]1C5` [Naloxegol (oxalate)], the TEAD-luciferase reporter activity runs as follows: (compound concentration: 200 nM) inactive: -0.652; (compound concentration: 2 uM) inactive: -1.55; (compound concentration: 10 uM) inactive: 1.9.
With `Cc1cc(C)cc(C(=O)OC2CC3CCC(C2)N3C)c1` (centres undefined) [tropanserin], the TEAD-luciferase reporter activity runs as follows: (compound concentration: 200 nM) active: 6.25; (compound concentration: 2 uM) inactive: -1.36; (compound concentration: 10 uM) inactive: -0.373.
Take `CC(N)Cc1cccc(O)c1` (centres undefined) [gepefrine]: the TEAD-luciferase reporter activity is, setting by setting: (compound concentration: 200 nM) inactive: -1.19; (compound concentration: 2 uM) inactive: 0.0198; (compound concentration: 10 uM) inactive: -0.63.
Turning to `CO[C@H]1[C@H](O)C[C@H](O[C@@H]2C[C@H](Oc3cc4cc5c(c(O)c4c(O)c3C)C(=O)[C@@H](O[C@H]3C[C@@H](OC4C[C@@H](O[C@H]6C[C@](C)(O)[C@H](OC(C)=O)[C@@H](C)O6)[C@@H](O)[C@@H](C)O4)[C@H](O)[C@@H](C)O3)[C@H]([C@H](OC)C(=O)[C@@H](O)[C@@H](C)O)C5)O[C@H](C)[C@H]2OC(C)=O)O[C@@H]1C` (some centres undefined), the TEAD-luciferase reporter activity was inactive: -2.01 (compound concentration: 200 nM), inactive: -2.22 (compound concentration: 2 uM) and inactive: -2.94 (compound concentration: 10 uM).
Regarding `CN1C2CCC1CC(NC(=O)c1c[nH]c3ncccc13)C2` (centres undefined), the TEAD-luciferase reporter activity was inactive: -1.42 (compound concentration: 200 nM), inactive: 0.701 (compound concentration: 2 uM) and inactive: -0.505 (compound concentration: 10 uM).
As to `CN1C(=O)CN2CCOC2(c2ccccc2F)c2cc(Cl)ccc21` (centres undefined), the TEAD-luciferase reporter activity is inactive: -1.55 (compound concentration: 200 nM), inactive: -0.254 (compound concentration: 2 uM) and inactive: 3.29 (compound concentration: 10 uM).
As for `CC12CC[C@H](O)CC1=C[C@H](O)[C@@H]1[C@@H]2CCC2(C)[C@@H](O)CC[C@@H]12` (some centres undefined), the TEAD-luciferase reporter activity (compound concentration: 200 nM) was inactive: -1.87, the TEAD-luciferase reporter activity (compound concentration: 2 uM) was inactive: -1.29 and the TEAD-luciferase reporter activity (compound concentration: 10 uM) is inactive: -0.636.
Consider `CCOP(=S)(Oc1cccnc1)c1ccccc1` (centres undefined), for which the TEAD-luciferase reporter activity by setting is: (compound concentration: 200 nM) inactive: 1.01; (compound concentration: 2 uM) inactive: -0.958; (compound concentration: 10 uM) inactive: -1.64.
With `CC1OC(O[C@H]2CC[C@@]3(C=O)[C@H](CC[C@@H]4[C@@H]3CC[C@]3(C)[C@@H](C5=CC(=O)OC5)CC[C@]43O)C2)C(O)C(O)C1O` (some centres undefined), the TEAD-luciferase reporter activity by setting is: (compound concentration: 200 nM) inactive: 3.97; (compound concentration: 2 uM) inactive: 4.56; (compound concentration: 10 uM) active: 23.4.
As to `COc1cc(C2c3cc4c(cc3C(CCN(C)CCN(C)C)C3COC(=O)C23)OCO4)cc(OC)c1O` (centres undefined), the TEAD-luciferase reporter activity is inactive: -0.648 (compound concentration: 200 nM), inactive: -1.42 (compound concentration: 2 uM) and inactive: -0.905 (compound concentration: 10 uM).
Regarding `CCOC(=O)C(C(=O)OC1CC2CCC(C1)[N+]2(C)C)c1ccccc1` (centres undefined), the TEAD-luciferase reporter activity is, setting by setting: (compound concentration: 200 nM) inactive: -0.634; (compound concentration: 2 uM) inactive: -1.31; (compound concentration: 10 uM) inactive: 0.683.
The like results for `CCC1(C2=CCCCC2)C(=O)NC(=O)NC1=O` were, in that order, inactive: -0.0998, inactive: -0.373 and inactive: -1.08.
On to `CO[C@]12CC[C@@]3(C[C@@H]1[C@](C)(O)C(C)(C)C)[C@H]1Cc4ccc(O)c5c4[C@@]3(CCN1CC1CC1)[C@H]2O5` [Buprenorphine Hydrochloride], for which the TEAD-luciferase reporter activity (compound concentration: 200 nM) was inactive: -0.191 and the TEAD-luciferase reporter activity (compound concentration: 10 uM) is inactive: -0.766.

The values are drawn from the supplement of paper PMC10735217.
